# The supplement of paper PMC6411743
# Chains of the proteins cited; added tags and fusions are not shown. Lines headed by an entry give the natural chain unless they say otherwise; changes in a name come on top.
# UniProt P18887, whole entry: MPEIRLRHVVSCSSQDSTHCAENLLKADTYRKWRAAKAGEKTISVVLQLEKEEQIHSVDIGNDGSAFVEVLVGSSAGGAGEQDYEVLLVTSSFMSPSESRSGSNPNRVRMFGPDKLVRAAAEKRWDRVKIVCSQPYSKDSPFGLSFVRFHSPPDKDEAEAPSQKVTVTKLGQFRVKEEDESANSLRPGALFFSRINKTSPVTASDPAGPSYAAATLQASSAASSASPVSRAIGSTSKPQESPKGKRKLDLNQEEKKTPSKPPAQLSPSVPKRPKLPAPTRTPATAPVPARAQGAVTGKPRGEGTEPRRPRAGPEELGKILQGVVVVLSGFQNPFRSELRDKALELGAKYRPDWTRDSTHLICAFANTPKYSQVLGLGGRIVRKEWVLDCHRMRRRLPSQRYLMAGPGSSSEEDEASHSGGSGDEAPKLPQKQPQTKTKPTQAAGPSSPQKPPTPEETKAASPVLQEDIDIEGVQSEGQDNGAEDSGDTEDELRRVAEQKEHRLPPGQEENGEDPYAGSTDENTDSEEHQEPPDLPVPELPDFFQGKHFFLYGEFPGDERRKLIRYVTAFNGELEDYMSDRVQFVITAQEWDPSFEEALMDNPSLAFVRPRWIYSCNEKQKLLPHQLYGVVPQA
# UniProt O95271: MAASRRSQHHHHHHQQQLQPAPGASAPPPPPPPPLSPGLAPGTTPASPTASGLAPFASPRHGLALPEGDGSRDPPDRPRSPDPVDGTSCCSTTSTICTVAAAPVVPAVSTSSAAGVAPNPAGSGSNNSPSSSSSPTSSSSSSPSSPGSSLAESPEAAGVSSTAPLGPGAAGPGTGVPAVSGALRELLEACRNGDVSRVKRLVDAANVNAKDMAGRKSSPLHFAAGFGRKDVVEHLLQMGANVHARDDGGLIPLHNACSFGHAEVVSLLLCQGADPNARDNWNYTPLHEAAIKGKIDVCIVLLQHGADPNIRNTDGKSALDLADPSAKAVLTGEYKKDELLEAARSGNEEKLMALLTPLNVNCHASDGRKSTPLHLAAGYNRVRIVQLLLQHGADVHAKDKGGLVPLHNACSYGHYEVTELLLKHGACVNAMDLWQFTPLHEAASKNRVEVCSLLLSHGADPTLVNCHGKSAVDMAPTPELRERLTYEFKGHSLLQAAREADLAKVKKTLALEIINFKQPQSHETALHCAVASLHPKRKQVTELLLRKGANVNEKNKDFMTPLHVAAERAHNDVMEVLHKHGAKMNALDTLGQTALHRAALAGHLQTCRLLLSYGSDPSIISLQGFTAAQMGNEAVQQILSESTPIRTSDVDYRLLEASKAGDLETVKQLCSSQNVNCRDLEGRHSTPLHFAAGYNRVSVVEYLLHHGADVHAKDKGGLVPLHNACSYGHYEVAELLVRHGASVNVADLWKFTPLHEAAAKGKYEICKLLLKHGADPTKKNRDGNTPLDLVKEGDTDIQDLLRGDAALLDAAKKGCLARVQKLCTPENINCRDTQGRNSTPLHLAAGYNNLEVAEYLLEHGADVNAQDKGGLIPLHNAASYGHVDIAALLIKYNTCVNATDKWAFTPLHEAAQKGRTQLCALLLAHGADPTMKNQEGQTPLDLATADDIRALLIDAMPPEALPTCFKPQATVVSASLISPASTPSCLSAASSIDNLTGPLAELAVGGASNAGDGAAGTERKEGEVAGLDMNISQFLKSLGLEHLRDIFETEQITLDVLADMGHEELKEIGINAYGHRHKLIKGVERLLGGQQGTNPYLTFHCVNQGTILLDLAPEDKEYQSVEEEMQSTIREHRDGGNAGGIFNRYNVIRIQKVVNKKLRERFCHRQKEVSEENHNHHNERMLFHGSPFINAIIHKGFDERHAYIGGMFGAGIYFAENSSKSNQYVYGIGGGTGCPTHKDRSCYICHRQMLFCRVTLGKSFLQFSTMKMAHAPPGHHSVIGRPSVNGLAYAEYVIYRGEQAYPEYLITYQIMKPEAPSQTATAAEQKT
# UniProt P10809, whole entry: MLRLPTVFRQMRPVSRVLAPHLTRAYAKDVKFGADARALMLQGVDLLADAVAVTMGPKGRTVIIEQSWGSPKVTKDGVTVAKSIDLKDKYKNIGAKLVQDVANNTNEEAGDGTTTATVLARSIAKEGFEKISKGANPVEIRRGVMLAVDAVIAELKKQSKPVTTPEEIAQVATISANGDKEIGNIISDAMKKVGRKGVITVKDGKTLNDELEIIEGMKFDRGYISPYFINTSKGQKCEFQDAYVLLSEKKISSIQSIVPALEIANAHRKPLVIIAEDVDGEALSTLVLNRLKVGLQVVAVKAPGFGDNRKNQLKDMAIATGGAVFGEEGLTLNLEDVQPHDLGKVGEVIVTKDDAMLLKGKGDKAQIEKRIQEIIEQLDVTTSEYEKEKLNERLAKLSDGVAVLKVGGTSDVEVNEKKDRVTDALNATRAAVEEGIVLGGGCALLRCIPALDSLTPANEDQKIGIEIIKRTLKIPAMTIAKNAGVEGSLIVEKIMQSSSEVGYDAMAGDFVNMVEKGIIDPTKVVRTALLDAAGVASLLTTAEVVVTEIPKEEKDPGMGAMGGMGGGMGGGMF
# UniProt Q9UJX4, whole entry: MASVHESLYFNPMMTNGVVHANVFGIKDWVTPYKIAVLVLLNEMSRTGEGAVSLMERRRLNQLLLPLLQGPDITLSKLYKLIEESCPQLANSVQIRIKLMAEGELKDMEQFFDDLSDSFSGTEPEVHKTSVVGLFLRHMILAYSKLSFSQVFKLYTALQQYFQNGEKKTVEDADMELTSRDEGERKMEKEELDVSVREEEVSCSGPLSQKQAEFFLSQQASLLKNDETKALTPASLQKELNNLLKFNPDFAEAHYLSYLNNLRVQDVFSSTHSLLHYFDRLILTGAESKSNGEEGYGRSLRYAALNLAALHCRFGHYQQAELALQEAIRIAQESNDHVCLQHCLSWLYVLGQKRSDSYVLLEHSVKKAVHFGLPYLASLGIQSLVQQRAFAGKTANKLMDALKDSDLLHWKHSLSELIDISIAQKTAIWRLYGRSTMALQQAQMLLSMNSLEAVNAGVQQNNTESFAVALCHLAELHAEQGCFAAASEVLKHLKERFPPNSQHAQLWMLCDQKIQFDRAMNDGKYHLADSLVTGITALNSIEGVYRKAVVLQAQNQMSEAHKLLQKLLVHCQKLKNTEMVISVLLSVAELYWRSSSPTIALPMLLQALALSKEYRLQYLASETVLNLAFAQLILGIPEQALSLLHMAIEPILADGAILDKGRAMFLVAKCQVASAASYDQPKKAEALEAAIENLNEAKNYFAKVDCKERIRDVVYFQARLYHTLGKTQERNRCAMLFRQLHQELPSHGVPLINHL
# UniProt O76062: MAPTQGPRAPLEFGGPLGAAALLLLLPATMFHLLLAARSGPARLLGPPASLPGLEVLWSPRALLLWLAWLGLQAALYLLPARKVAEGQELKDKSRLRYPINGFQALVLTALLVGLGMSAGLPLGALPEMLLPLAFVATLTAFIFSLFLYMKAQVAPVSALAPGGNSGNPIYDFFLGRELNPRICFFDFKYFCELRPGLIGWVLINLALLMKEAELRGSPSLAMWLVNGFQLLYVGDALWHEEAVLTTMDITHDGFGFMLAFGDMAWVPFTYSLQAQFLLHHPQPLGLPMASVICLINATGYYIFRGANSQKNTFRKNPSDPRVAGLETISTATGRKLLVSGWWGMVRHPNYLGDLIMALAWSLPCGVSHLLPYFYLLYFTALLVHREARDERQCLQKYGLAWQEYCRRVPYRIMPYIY
# UniProt P63151: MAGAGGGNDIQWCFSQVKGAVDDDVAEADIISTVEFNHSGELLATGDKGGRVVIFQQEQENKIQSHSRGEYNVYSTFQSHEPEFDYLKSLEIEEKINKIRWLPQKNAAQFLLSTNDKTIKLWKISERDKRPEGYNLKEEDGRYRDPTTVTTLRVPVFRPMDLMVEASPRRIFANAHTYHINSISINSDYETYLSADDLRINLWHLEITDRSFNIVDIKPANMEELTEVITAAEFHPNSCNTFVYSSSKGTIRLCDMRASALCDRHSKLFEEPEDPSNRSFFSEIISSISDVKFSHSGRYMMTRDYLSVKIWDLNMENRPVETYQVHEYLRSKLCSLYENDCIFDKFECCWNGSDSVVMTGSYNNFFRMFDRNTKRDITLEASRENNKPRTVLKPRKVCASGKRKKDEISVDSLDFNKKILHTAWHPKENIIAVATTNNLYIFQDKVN
# UniProt Q86YW9: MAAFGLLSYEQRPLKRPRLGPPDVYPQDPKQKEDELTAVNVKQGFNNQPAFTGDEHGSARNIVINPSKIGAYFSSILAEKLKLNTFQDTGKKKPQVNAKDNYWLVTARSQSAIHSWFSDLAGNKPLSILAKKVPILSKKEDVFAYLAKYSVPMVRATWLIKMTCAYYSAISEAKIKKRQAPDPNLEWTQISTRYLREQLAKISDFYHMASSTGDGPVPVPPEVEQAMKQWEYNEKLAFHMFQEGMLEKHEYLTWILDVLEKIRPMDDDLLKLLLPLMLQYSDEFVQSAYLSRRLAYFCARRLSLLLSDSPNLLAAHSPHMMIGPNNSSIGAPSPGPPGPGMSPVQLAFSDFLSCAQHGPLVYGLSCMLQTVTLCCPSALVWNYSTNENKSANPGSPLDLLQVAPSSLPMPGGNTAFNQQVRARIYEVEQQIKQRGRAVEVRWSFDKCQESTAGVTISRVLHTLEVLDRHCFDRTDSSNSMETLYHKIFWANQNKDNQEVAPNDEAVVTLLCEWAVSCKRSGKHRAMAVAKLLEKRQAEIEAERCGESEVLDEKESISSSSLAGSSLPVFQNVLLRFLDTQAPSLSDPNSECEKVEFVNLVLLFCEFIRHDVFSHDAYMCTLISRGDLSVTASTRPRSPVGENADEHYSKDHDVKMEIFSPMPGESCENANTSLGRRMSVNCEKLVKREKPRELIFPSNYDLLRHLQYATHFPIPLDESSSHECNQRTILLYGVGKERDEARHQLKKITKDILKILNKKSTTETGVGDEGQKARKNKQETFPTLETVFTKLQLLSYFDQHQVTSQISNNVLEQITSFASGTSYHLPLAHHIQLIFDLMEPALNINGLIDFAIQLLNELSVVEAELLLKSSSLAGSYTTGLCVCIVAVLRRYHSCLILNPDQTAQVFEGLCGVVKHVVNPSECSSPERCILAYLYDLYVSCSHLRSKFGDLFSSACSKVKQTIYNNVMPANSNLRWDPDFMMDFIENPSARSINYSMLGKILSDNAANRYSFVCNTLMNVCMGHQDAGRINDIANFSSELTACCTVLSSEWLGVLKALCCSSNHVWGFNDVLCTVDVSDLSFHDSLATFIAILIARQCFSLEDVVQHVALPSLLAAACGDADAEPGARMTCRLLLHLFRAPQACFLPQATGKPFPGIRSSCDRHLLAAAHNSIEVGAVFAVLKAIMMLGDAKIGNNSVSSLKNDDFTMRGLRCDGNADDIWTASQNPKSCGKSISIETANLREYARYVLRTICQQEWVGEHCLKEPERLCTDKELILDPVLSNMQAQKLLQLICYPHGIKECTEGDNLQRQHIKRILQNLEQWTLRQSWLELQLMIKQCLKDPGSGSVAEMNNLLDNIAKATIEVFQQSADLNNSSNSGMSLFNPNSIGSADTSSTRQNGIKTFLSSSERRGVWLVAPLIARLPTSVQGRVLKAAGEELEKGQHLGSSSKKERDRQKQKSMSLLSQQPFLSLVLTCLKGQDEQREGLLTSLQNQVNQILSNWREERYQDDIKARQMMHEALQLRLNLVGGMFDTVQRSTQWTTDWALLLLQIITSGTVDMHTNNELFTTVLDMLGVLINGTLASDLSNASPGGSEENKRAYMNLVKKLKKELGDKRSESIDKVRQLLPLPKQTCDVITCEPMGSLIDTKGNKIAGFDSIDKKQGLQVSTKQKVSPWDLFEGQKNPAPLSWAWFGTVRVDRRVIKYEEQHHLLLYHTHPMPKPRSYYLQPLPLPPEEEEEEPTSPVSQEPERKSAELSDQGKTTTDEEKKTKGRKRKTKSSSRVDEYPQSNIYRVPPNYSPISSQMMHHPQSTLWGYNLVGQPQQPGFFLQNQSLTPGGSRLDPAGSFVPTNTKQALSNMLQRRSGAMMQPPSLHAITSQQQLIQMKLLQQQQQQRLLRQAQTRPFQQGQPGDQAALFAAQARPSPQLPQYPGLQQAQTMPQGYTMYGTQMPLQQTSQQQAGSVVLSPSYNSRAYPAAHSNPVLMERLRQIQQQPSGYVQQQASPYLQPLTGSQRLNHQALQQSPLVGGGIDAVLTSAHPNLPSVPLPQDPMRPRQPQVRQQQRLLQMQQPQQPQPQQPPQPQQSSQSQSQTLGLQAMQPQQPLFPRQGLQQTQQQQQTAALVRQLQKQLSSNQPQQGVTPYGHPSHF
# UniProt Q14493, whole entry, looked up: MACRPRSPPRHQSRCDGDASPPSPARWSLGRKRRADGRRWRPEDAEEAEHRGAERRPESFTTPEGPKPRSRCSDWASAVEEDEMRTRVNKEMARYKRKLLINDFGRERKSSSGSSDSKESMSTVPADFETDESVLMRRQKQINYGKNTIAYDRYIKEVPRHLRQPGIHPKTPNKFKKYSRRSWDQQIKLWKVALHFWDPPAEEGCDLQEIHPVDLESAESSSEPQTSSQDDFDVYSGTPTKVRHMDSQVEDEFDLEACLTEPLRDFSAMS
# ± gives the standard deviation of the averaged measurements. The list shows a part of the results, in another mix than the full data.
# Compound: Nc1ncnc2c1ncn2[C@@H]1O[C@H](COP(=O)(O)OP(=O)(O)NP(=O)(O)O)[C@@H](O)[C@H]1O [adenylyl imidodiphosphate]
# Assay: NP40-soluble protein abundance relative to vehicle (solubility fold change) (ratio); higher = more soluble protein in presence of AMP-PNP
# Summary of the method: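 Each value is a fold change relative to the detergent-processed vehicle, calculated per replicate from vsn-normalised intensities. Jurkat crude lysate received eight concentrations (0.1 to 10 mM) for 10 min at room temperature and 3 min at 37 °C, then was solubilised in 0.8% NP40 with benzonase (60 min, 4 °C). The ultracentrifuged supernatant was TMT-labelled and run by LC-MS/MS in three independent experiments.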
Target,NP40-soluble protein abundance (concentration: 1mM),NP40-soluble protein abundance (concentration: 2mM),NP40-soluble protein abundance (concentration: 4mM),NP40-soluble protein abundance (concentration: 6mM),NP40-soluble protein abundance (concentration: 8mM),NP40-soluble protein abundance (concentration: 10mM)
F5GXB1 and related entries (UniProt Q9HBH0),1.01 ± 0.037,0.964 ± 0.031,1.01 ± 0.024,1.03 ± 0.048,1.05 ± 0.024,1.04 ± 0.016
F8WF69 and related entries (UniProt P09496),0.9494 ± 0.001,0.919 ± 0.057,0.873 ± 0.05,0.833 ± 0.033,0.806 ± 0.014,0.813 ± 0.018
F5H858 and related entries (UniProt O75167),0.9878 ± 0.0095,1.05 ± 0.077,1.04 ± 0.023,0.9989 ± 0.0088,1.03 ± 0.032,1.002 ± 0.0015
E9PH64 and related entries (UniProt Q9Y6M9),1.04 ± 0.08,1.15 ± 0.12,1.05 ± 0.052,1.04 ± 0.071,0.99 ± 0.015,1.01 ± 0.045
F5H212 and related entries (UniProt P15822),1.04 ± 0.1,1.08 ± 0.12,1.09 ± 0.2,1.13 ± 0.21,1.14 ± 0.27,1.25 ± 0.42
E9PJ81 and related entries (UniProt Q04323),0.991 ± 0.016,1.03 ± 0.024,0.985 ± 0.052,0.977 ± 0.053,0.99 ± 0.023,0.977 ± 0.041
F8WB06 and related entries (UniProt Q99700),1.02 ± 0.021,1.12 ± 0.055,1.1 ± 0.028,1.13 ± 0.051,1.05 ± 0.073,1.16 ± 0.036
F5H8D7 and related entries (UniProt P18887),1.01 ± 0.011,1.03 ± 0.031,1.028 ± 0.0073,1.07 ± 0.014,1.05 ± 0.03,1.11 ± 0.029
E9PCG9 and related entries (UniProt Q02338),0.967 ± 0.018,0.949 ± 0.049,0.981 ± 0.022,0.95 ± 0.022,0.987 ± 0.0076,0.959 ± 0.015
E7EQ52 and related entries (UniProt O95271),0.956 ± 0.029,0.928 ± 0.08,0.945 ± 0.053,0.881 ± 0.026,0.8608 ± 0.0012,0.875 ± 0.018
E7ESH4 and related entries (UniProt P10809),1.01 ± 0.041,1.02 ± 0.022,0.973 ± 0.018,0.968 ± 0.057,0.95 ± 0.033,0.975 ± 0.028
F5H0F9 and related entries (UniProt Q9UJX4),0.987 ± 0.014,0.919 ± 0.11,0.973 ± 0.04,0.986 ± 0.023,0.977 ± 0.067,0.96 ± 0.07
E7ERD7 and related entries (UniProt Q9UKU0),1 ± 0.016,1.02 ± 0.038,0.996 ± 0.032,0.983 ± 0.021,1 ± 0.013,0.986 ± 0.015
F8W1S5 and related entries (UniProt Q00537),1.013 ± 0.009,0.997 ± 0.049,0.984 ± 0.019,0.992 ± 0.015,0.985 ± 0.025,1 ± 0.028
E9PF18 and related entries (UniProt Q16836),0.996 ± 0.02,0.99 ± 0.02,0.961 ± 0.024,1.01 ± 0.039,1.01 ± 0.043,1 ± 0.059
F8VS36 and related entries (UniProt Q92994),1.05 ± 0.074,1.05 ± 0.049,1.02 ± 0.032,0.9827 ± 0.0086,0.998 ± 0.026,0.997 ± 0.013
F5GWA4 and related entries (UniProt Q9H3F6),0.971 ± 0.032,0.989 ± 0.047,0.998 ± 0.035,0.988 ± 0.041,1 ± 0.013,0.995 ± 0.0062
E9PLL1 and related entries (UniProt O76062),0.95 ± 0.07,0.962 ± 0.018,0.9511 ± 0.0069,0.954 ± 0.013,0.9649 ± 0.0067,0.909 ± 0.015
F8VVZ0 and related entries (UniProt P61020),1.03 ± 0.028,0.993 ± 0.013,1.01 ± 0.024,1.07 ± 0.026,1.08 ± 0.064,1.05 ± 0.018
E7EMB1 and related entries (UniProt Q9UH65),1.025 ± 0.0068,1.07 ± 0.072,1.01 ± 0.018,1.01 ± 0.017,0.965 ± 0.027,1 ± 0.064
E7ESY0 and related entries (UniProt P32019),0.945 ± 0.05,0.888 ± 0.037,0.97 ± 0.021,1 ± 0.084,1.03 ± 0.05,0.968 ± 0.033
E5RJV1 and related entries (UniProt P63151),0.981 ± 0.049,0.889 ± 0.035,0.934 ± 0.022,0.968 ± 0.046,0.982 ± 0.027,0.921 ± 0.027
E7ETA6 and related entries (UniProt Q15154),1.03 ± 0.056,1.08 ± 0.035,1.03 ± 0.035,1 ± 0.062,0.963 ± 0.046,1.02 ± 0.049
F5H5P4 and related entries (UniProt P15498),0.969 ± 0.029,0.902 ± 0.081,0.973 ± 0.017,0.964 ± 0.03,0.984 ± 0.017,0.923 ± 0.048
F8W8W7 and related entries (UniProt O43493),0.994 ± 0.017,1.05 ± 0.021,1.006 ± 0.0057,0.989 ± 0.038,0.966 ± 0.022,1.009 ± 0.0041
F8WAE6 and related entries (UniProt Q86YW9),0.957 ± 0.019,0.985 ± 0.019,0.9837 ± 0.0065,0.967 ± 0.027,0.984 ± 0.013,0.976 ± 0.02
E9PQY3 and related entries (UniProt P11117),1.01 ± 0.017,1.04 ± 0.057,0.99 ± 0.038,0.984 ± 0.046,0.985 ± 0.025,0.961 ± 0.047
F2Z2W7 and related entries (UniProt Q8IZ69),1.01 ± 0.02,1.02 ± 0.017,1.03 ± 0.016,1 ± 0.015,0.973 ± 0.029,0.955 ± 0.042
E7EPN6 and related entries (UniProt P55347),1.01 ± 0.03,1 ± 0.072,1.03 ± 0.039,1.06 ± 0.071,1.08 ± 0.035,1.07 ± 0.06
F8W8D3 and related entries (UniProt Q14493),1.02 ± 0.036,1.08 ± 0.046,1.04 ± 0.075,1.03 ± 0.035,1.02 ± 0.049,1.06 ± 0.071

# An excerpt of these results, bar-delimited:
Target | NP40-soluble protein abundance (concentration: 1mM) | NP40-soluble protein abundance (concentration: 2mM) | NP40-soluble protein abundance (concentration: 4mM) | NP40-soluble protein abundance (concentration: 6mM) | NP40-soluble protein abundance (concentration: 8mM) | NP40-soluble protein abundance (concentration: 10mM)
E7EMB1 and related entries (UniProt Q9UH65) | 1.025 ± 0.0068 | 1.07 ± 0.072 | 1.01 ± 0.018 | 1.01 ± 0.017 | 0.965 ± 0.027 | 1 ± 0.064
E7ESY0 and related entries (UniProt P32019) | 0.945 ± 0.05 | 0.888 ± 0.037 | 0.97 ± 0.021 | 1 ± 0.084 | 1.03 ± 0.05 | 0.968 ± 0.033
